Assay results reported in patent publication US7432306B2, “Method for preparing novel transcription factors and use” (NRL Pharma, Inc., priority 2005, dated 2008).

How the values were obtained:
[1] = system: ICR male mice; experiment: Mouse serum cholesterol lowering action; format: in vivo; details: one week
Experimental: Thirty 5-week-old ICR male mice were bred by allowing mouse standard feed and water ad libitum. The mice were randomly classified into three groups, and one group was taken as a control group to which no drug was administered, and feed containing 0.1% of 4-O-methylasco-chlorin diethylacetal (MAC-DEA) and feed containing 0.05% of MAC-DEA were given to the other two groups, respectively. The body weight, the intake of feed and the amount of drinking water were measured every other day. One week after giving feed, blood was collected and the total cholesterol in serum and the neutral fat were determined.

[2] = system: db/db mice; experiment: Action of MAC-DEA on db/db mouse; format: in vivo
Experimental: Eighteen 7-week-old male db/db mice were bred for one week by allowing mouse standard feed and water ad libitum. The mice were randomly classified into three groups of six mice and each group was housed in a urine collection rat cage and the intake of feed, the amount of drinking water, the amount of urine and the amount of urine sugar excreted were determined everyday. Feed CE-2 was given to the first group as a control group, and feed CE-2 mixed with 0.05% of 4-O-methylascochlorin diethylacetal (MAC-DEA) and feed CE-2 mixed with 0.1% of MAC-DEA were given to the second group and the third group, respectively. The mice were allowed feed and drinking water ad libitum and on the 7th day, blood was collected and the blood sugar, the serum neutral fat and the serum insulin were determined.

[3] = system: Ehrlich ascites carcinoma; experiment: Inhibition of Ehrlich solid tumor; format: in vivo, mouse; details: 7 days, 21st day
Experimental: Eighteen five-week-old ICR male mice were subcutaneously inoculated with 10^6 cells of Ehrlich ascites carcinoma […] and after 24 hours, and the mice were classified into three groups of six mice, and 4-O-methylascochlorin diethylacetal (MAC-DE) was suspended in 0.2% Tween-80 and 1 mg/kg and 4 mg/kg were orally administered to the first group and the second group twice a day at 9:00 and 20:00, respectively, and a MAC-DE-free Tween-80 aqueous solution was given to the third group as a control group. The administration was continued for successive 7 days and after completion of the administration, the mice were fed for two weeks. On the 21st day, a nodular tumor was removed from the mice and the body weight was determined and the effect of MAC-DE on the inhibition of tumor growth was examined.

Q: With `CCOC(OCC)c1c(C)c(Cl)c(OC)c(C/C=C(C)/C=C/[C@@]2(C)[C@H](C)CCC(=O)[C@@H]2C)c1O` [MAC-DEA, 4-O-methylascochlorin diethylacetal] as the molecule, how does the “Increase in Body Weight” value ([1]; 0.05% in feed) read?
A: 7.1 g/mouse

Q: What about the “Increase in Body Weight” value ([1]; 0.1% in feed) of the same molecule?
A: 6.9 g/mouse

Q: What about the “Increase in Weight” value ([2]; 0.05% in feed CE-2, db/db mice) of the same molecule?
A: 5.0 g/mouse

Q: And the “Intake of Feed” value ([2]; 0.05% in feed CE-2, db/db mice)?
A: 6.9 g/mouse

Q: What about the “Increase in Weight” value ([2]; 0.1% in feed CE-2, db/db mice) of the same molecule?
A: 4.8 g/mouse

Q: And the “Intake of Feed” value ([2]; 0.1% in feed CE-2, db/db mice)?
A: 6.4 g/mouse

Q: What about the “Increase in Body Weight” value ([3]; 1 mg/kg oral twice a day) of the same molecule?
A: 10.8 g/mouse

Q: And the “Increase in Body Weight” value ([3]; 4 mg/kg oral twice a day)?
A: 9.2 g/mouse
